The record followed here is patent US6562331B1, “Mating disruption methods for the control of insect pests” (Shin-Etsu Chemical Co., Ltd., priority 1999, dated 2003).

Data set [1] is described as follows: Sex pheromone concentration in the air of a treated paddy field (filled with water or drained), activated carbon collection, gas chromatography. The conditions noted are these: for Analytical values (concentration in the air): 50 cm above the ground, 8 hours collection at night. The text has this:
Sustained release sex pheromone preparations were made by mixing 7 parts by weight of a rice stem borer (Chilo Suppressalis) sex pheromone fluid (composed of 77 parts by weight of Z11-hexadecenal (Z11-16:Ald), 8 parts by weight of Z9-hexadecenal (Z9-16:Ald), and 15 parts by weight of Z13-octadecenal (Z13-18:Ald)) with 3 parts by weight of n-tetradecenyl acetate (n-14:Ac) to form a sex pheromone-containing mixture, and sealing this mixture in plastic containers (polyethylene tubes) measuring 1.40 mm in inner diameter, 2.60 mm in outer diameter, and 200 mm in length.
In a 10 hectare paddy field (in Tatebayashi City, Gunma Prefecture, Japan) filled with water, sticks having the aforesaid sex pheromone preparations attached thereto were uniformly installed at a density of 250 sticks per 10 ares. Using this sex pheromone-treated field, the concentrations of Z11-hexadecenal and n-tetradecenyl acetate in the air were determined.
Specifically, a pole was set up at the center of this sex pheromone-treated field, and an absorption tube packed with 100 g of fibrous activated carbon was attached thereto at a height of 50 cm above the ground. Moreover, a suction pump was connected to the absorption tube, and suction was carried out for a period of 8 hours extending from 8 o'clock in the evening to 4 o'clock in the next morning to collect the sex pheromones present in the air. After collection, the activated carbon was extracted with n-hexane, and the extract was analyzed by gas chromatography. Thus, the concentrations of Z11-hexadecenal and n-tetradecenyl acetate in the air were determined.
Similarly to Example 3, sustained release sex pheromone preparations were made by mixing 7 parts by weight of a rice stem borer sex pheromone fluid [composed of 77 parts by weight of Z11-hexadecenal, 8 parts by weight of Z9-hexadecenal, and 15 parts by weight of Z13-octadecenal] with 3 parts by weight of n-tetradecenyl acetate (n-14:Ac) to form a sex pheromone-containing mixture, and sealing this mixture in plastic containers.
Thereafter, the same procedure as described in Example 3 was repeated, except that a 10 hectare paddy field (in Tatebayashi City, Gunma Prefecture, Japan) which had been completely drained off was used for the sex pheromone-treated field. Using this sex pheromone-treated field, the concentrations of Z11-hexadecenal and n-tetradecenyl acetate in the air were determined.

The nature of data set [2]: Sex pheromone released in a desiccator over dried soil with or without covering film, collected in hexane, gas chromatography. To be noted: for Analytical values (amount collected from desiccator air): collected about 4 hours. The protocol: Using a desiccator having a diameter of 22 cm and a height of 20 cm and provided with two threaded openings at the top and in the sidewall, soil which had been dried by heating at 110° C. for 2 hours was charged thereinto to a depth of 7 cm as measured from the bottom of the desiccator. The surface of the soil and the inner surfaces surrounding the upper space of the desiccator were covered with a film of a saponification product of ethylene-vinyl acetate copolymer (trade name: Vinylon np, manufactured by Aicello Chemical Co., Ltd.). In this desiccator, a sustained release sex pheromone preparation comprising a plastic container (polyethylene tube) measuring 1.07 mm in inner diameter, 1.73 mm in outer diameter, and 200 mm in length, and having sealed therein a sex pheromone mixture (120 g) composed of 5 parts by weight of Z11-tetradecenal (Z11-16:Ald) and 5 parts by weight of Z11-tetradecenyl acetate (Z11-16:Ac) was broken in two and placed on the soil with the aid of a support. Then, a 250 ml collection bottle containing 200 ml of hexane was connected to the upper opening of the desiccator by means of a teflon tube, and a suction pump was further connected to the collection bottle. Thus, Z11-tetradecenal and Z11-tetradecenyl acetate released in the desiccator were collected for about 4 hours, and the amounts thereof were measured.
The measurement was made by subjecting the collecting hexane solution to gas chromatography and determining the pheromones according to the internal standard method.
According to the same procedure as described in Example 4, soil which had been dried by heating at 110° C. for 2 hours was charged into a desiccator, and a sustained release sex pheromone preparation comprising a plastic container having 5 parts by weight of Z11-tetradecenal and 5 parts by weight of Z11-tetradecenyl acetate sealed therein was placed thereon with the aid of a support. Using the same solvent as used in Example 4, Z11-tetradecenal and Z11-tetradecenyl acetate released in the desiccator were collected for the same time and determined.

[3] abbreviates: Comparative Example 2: paddy field completely drained off.
The mark [4] stands for this setting: Example 3: paddy field filled with water.
Where [5] appears, read: Comparative Example 3: dried soil, no covering film.
Setting [6] is: Example 4: dried soil and inner surfaces covered with film of saponification product of ethylene-vinyl acetate copolymer.

In the case of `CCCC/C=C\CCCCCCCCCC=O` [Z11-hexadecenal], in data set [1] (setting [3]), the “Weight ratio Aldehyde/acetate” value was determined as 3.8 and the “Analytical values (concentration in the air)” value was 15 ng/m^3. Also, in data set [1] (setting [4]), the “Weight ratio Aldehyde/acetate” value turned out to be 7.2 and the “Analytical values (concentration in the air)” value was 36 ng/m^3.
Regarding `CC/C=C\CCCCCCCCCC=O` [Z11-tetradecenal], the “Weight ratio Aldehyde/acetate” value in data set [2] (setting [5]) turned out to be 1.1; in data set [2] (Example 4: dried soil and inner surfaces covered with film), 3.3. Besides, the “Analytical values (amount collected from desiccator air)” value in data set [2] (setting [5]) came out at 10 µg; in data set [2] (setting [6]) it was 26 µg.
For `CC/C=C\CCCCCCCCCCOC(C)=O` [Z11-tetradecenyl acetate], the “Analytical values (amount collected from desiccator air)” value in data set [2] (setting [5]) is 9 µg; in data set [2] (setting [6]) it was 8 µg.
Turning to n-tetradecenyl acetate, the “Analytical values (concentration in the air)” value in data set [1] (setting [3]) is given as 4 ng/m^3; in data set [1] (setting [4]), 5 ng/m^3.
